Our source for the log2 fold change values is the supplement of paper PMC10849652.

The chains behind the UniProt entries cited, without tags or fusion partners. Where a name states a change or a piece, a line headed by the entry shows the natural chain unless it says otherwise.
UniProt A6NFI3: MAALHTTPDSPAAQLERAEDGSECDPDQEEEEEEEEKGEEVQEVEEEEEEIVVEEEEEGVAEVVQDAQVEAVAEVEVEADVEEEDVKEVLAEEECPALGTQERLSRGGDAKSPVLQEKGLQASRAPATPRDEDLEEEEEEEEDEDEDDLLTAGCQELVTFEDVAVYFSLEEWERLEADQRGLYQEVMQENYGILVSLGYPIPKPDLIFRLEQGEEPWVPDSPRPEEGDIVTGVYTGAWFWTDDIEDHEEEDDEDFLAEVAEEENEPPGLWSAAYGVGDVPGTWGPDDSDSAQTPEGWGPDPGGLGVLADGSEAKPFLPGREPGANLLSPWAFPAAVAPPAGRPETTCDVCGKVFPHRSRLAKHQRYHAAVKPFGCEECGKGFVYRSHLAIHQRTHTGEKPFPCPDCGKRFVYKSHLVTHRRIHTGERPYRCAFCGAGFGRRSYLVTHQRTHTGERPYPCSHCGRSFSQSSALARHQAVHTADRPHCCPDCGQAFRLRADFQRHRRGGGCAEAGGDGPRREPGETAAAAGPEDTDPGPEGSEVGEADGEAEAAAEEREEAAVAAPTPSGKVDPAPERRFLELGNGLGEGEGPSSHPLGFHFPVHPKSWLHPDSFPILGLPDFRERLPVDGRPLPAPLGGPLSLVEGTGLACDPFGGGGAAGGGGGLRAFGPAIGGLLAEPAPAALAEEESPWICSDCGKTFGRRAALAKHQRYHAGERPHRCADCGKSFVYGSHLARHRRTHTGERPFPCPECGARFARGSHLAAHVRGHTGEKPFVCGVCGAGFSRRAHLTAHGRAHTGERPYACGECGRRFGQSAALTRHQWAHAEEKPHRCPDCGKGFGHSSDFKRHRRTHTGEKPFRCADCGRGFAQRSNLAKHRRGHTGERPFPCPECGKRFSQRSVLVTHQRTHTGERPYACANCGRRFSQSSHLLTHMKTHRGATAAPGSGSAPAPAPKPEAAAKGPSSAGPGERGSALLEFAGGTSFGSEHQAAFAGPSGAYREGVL
UniProt Q5VUA4: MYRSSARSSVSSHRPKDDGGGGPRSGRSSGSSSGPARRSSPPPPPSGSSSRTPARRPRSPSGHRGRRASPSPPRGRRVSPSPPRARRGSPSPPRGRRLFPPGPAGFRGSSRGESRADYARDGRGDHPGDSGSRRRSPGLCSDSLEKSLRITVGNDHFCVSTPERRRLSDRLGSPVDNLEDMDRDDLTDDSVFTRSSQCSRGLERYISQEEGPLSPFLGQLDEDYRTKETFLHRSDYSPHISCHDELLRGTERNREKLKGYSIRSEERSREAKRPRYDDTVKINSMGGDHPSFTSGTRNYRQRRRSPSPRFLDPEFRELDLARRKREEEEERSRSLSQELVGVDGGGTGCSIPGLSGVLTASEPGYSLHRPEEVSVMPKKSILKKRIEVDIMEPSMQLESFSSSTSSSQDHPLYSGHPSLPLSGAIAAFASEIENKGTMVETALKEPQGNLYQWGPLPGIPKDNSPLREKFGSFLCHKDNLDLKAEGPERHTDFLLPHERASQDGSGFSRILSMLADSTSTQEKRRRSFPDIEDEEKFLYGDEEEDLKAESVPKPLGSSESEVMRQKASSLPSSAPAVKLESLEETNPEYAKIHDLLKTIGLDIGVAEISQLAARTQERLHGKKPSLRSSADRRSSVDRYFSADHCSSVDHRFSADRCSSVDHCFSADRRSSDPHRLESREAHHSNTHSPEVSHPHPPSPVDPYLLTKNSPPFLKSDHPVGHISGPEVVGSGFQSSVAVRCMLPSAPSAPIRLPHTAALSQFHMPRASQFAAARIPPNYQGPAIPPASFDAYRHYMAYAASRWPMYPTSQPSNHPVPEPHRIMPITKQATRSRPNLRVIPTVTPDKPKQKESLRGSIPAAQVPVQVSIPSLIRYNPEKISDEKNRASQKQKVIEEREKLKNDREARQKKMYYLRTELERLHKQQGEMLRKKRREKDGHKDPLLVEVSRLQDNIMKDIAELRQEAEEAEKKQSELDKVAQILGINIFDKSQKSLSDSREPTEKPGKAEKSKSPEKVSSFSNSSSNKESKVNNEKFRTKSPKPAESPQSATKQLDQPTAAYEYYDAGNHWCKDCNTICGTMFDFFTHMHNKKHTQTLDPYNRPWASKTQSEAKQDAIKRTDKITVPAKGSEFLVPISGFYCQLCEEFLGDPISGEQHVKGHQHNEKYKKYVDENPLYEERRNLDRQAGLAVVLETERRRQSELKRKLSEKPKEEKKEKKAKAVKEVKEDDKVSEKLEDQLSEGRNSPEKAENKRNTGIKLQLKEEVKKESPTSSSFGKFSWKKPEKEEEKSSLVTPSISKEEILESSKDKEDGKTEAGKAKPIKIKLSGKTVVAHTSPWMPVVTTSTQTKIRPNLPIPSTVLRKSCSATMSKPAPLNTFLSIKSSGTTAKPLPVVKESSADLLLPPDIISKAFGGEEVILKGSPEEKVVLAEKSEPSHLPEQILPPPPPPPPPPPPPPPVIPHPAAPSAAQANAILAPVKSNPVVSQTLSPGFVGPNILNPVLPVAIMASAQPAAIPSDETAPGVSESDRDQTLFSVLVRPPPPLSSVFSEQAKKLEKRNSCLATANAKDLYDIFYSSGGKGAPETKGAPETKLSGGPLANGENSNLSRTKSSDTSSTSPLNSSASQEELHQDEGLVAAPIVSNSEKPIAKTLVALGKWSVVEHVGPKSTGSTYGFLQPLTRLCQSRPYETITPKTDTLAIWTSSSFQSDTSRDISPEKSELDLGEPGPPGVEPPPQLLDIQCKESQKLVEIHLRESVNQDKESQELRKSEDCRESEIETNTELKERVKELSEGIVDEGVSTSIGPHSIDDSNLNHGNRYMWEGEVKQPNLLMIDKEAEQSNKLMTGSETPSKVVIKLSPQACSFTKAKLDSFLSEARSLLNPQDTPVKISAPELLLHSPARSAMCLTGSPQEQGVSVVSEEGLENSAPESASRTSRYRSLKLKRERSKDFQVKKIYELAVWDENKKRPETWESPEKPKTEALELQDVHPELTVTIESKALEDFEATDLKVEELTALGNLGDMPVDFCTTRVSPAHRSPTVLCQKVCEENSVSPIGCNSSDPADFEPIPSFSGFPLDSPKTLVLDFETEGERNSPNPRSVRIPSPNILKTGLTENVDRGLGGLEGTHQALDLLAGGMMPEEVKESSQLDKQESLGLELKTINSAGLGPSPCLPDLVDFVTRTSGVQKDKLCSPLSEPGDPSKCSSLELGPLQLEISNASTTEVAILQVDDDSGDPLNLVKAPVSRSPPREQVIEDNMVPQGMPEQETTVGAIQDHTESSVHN
UniProt Q5BKZ1: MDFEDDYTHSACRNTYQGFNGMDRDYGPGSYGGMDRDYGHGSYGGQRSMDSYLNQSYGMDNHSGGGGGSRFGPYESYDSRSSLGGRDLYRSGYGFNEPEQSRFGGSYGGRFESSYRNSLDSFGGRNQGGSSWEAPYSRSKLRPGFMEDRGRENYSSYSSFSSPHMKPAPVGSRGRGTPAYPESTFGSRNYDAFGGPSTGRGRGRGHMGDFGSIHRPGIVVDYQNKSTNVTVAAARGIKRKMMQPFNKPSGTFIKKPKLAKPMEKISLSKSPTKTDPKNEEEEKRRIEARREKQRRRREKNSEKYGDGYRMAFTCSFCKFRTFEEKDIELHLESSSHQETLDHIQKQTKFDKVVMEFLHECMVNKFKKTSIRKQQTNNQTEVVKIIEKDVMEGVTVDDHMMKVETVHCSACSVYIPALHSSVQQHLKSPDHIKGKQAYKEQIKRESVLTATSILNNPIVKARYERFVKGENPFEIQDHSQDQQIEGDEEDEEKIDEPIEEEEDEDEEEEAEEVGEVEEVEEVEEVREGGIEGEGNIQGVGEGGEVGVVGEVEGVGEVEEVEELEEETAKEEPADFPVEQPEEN
UniProt Q9Y3S2: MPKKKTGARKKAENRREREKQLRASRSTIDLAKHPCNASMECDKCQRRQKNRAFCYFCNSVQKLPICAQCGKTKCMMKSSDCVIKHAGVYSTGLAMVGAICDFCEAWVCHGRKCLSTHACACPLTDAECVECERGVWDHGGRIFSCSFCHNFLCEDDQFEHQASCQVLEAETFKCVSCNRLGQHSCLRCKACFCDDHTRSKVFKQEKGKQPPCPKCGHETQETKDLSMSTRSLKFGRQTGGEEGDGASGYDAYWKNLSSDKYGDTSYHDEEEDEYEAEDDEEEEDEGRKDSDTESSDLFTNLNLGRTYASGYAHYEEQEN

Each structure is given as a SMILES string. The list shows a part of the results. Residues, ends and D or L forms follow the SMILES beside them. *: point of attachment. Cbz = O=C(OCc1ccccc1)*

The first assay deals with ZNF316 (UniProt A6NFI3). Briefly: log2 fold change, soluble protein after heating vs DMSO (PISA); higher = thermal stabilisation; K562 cells, 10 uM, 30 min; active = over 0.2 and 3.5 SD of the protein, either way, in both replicates (recomputed). The gist of the method: (§1)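 Aliquots of K562 cells (2×10^6 cells/mL) treated with 10 μM compound for 30 min were heated for 3 min over 48°C-58°C. After pooling and extraction in PBS with 0.5% NP-40 at 4°C, soluble protein from a 21,000xg, 90 min spin was quantified by TMTpro 16plex LC-MS/MS with channel sums equalised. Thermal stability is expressed against control samples, from duplicates, as a log2 fold change.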
Turning to `O=C1NC(=O)/C(=C\c2ccc3nccnc3c2)S1`, the log2 fold change was inactive: 0.198.

For the compound `NC1(c2ccc(-c3nc4ccn5c(=O)[nH]nc5c4cc3-c3ccccc3)cc2)CCC1`, the log2 fold change is inactive: -0.089.

With `Cn1cc(-c2ccc3c(c2)CCN3C(=O)Cc2cccc(C(F)(F)F)c2)c2c(N)ncnc21`, the log2 fold change was inactive: -0.014.

In a further assay the target is ZNF318 (UniProt Q5VUA4). Described as above. A digest of the protocol: as §1
Take `NC(=O)c1cnc(N[C@@H]2CCCC[C@@H]2N)nc1Nc1cccc(-n2nccn2)c1`: the log2 fold change was inactive: 0.002.

On to `C/C(=N\NC(=O)c1cccc(S(=O)(=O)N2CCOCC2)c1)c1cc(Cl)ccc1O`, for which the log2 fold change is inactive: -0.044.

On to `Cn1cc(-c2ccc3nnc(C(F)(F)c4ccc5ncccc5c4)n3n2)cn1`, for which the log2 fold change is inactive: -0.018.

As for `Cc1ccc(C(=O)N(CCCN)[C@@H](c2nc3cc(Cl)ccc3c(=O)n2Cc2ccccc2)C(C)C)cc1` [ispinesib], the log2 fold change is inactive: -0.072.

For the compound `C[C@@H](N)c1ccc(C(=O)Nc2ccnc3[nH]ccc23)cc1`, the log2 fold change was inactive: -0.152.

For the compound `O=C1NC(=NCc2cccs2)S/C1=C\c1ccc2ncccc2c1`, the log2 fold change is inactive: 0.007.

As for `CC(=O)c1cnc2ccc(-c3cc(Cl)c(O)c(Cl)c3)nc2c1N[C@H]1CC[C@H](CN(C)C)CC1`, the log2 fold change was inactive: -0.098.

Turning to `Cc1ccc(NC(=O)c2cccc(N(C)C)c2)cc1NC(=O)c1ccc(O)cc1`, the log2 fold change was inactive: 0.158.

On to `CC(C)C[C@@H](C=O)NC(=O)[C@H](CC(C)C)NC(=O)[C@H](CC(C)C)NC(=O)OCc1ccccc1` (Cbz-Leu-Leu-Leu-aldehyde), for which the log2 fold change is inactive: -0.05.

Turning to `Oc1cc(-c2nc(-c3ccccc3)[nH]c2-c2ccncc2)ccc1Cl`, the log2 fold change was inactive: -0.443.

For `CC(C)(C)Cn1c(N)nc2ccc(-c3[nH]c(C(C)(C)C)nc3-c3ccc(F)cc3)nc21` [ralimetinib], the log2 fold change is inactive: -0.354.

Consider `O=C1c2ccccc2-c2n[nH]c3cccc1c23`, for which the log2 fold change is inactive: 0.016.

In the case of `COc1cc(C(=O)O)ccc1NC(=O)[C@@H]1N[C@@H](CC(C)(C)C)[C@](C#N)(c2ccc(Cl)cc2F)[C@H]1c1cccc(Cl)c1F` [idasanutlin], the log2 fold change is inactive: -0.008.

As for `CO[C@H]1C[C@@H]2CC[C@@H](C)[C@@](O)(O2)C(=O)C(=O)N2CCCC[C@H]2C(=O)O[C@H]([C@H](C)C[C@@H]2CC[C@H](n3cnnn3)[C@H](OC)C2)CC(=O)[C@H](C)/C=C(\C)[C@@H](O)[C@@H](OC)C(=O)[C@H](C)C[C@H](C)/C=C/C=C/C=C/1C` [zotarolimus], the log2 fold change is inactive: -0.032.

On to `Cn1cc(-c2ccc3c(c2)CCN3C(=O)Cc2cccc(C(F)(F)F)c2)c2c(N)ncnc21`, for which the log2 fold change is inactive: 0.039.

A further assay deals with ZNF326 (UniProt Q5BKZ1). The description is as above. The gist of the method:
as §1
As to `Cn1cc(-c2ccc3nnc(C(F)(F)c4ccc5ncccc5c4)n3n2)cn1`, the log2 fold change was inactive: 0.003.

Regarding `Cc1ccc(C(=O)N(CCCN)[C@@H](c2nc3cc(Cl)ccc3c(=O)n2Cc2ccccc2)C(C)C)cc1` [ispinesib], the log2 fold change was inactive: -0.202.

`Cc1ccc(NC(=O)c2cccc(N(C)C)c2)cc1NC(=O)c1ccc(O)cc1`: the log2 fold change was inactive: -0.043.

Take `CC(C)C[C@@H](C=O)NC(=O)[C@H](CC(C)C)NC(=O)[C@H](CC(C)C)NC(=O)OCc1ccccc1` (Cbz-Leu-Leu-Leu-aldehyde): the log2 fold change was inactive: 0.071.

For `Oc1cc(-c2nc(-c3ccccc3)[nH]c2-c2ccncc2)ccc1Cl`, the log2 fold change was inactive: 0.004.

Take `CC(C)(C)Cn1c(N)nc2ccc(-c3[nH]c(C(C)(C)C)nc3-c3ccc(F)cc3)nc21` [ralimetinib]: the log2 fold change is inactive: 0.152.

The next assay has as its target ZNF330 (UniProt Q9Y3S2). Described as above. A digest of the protocol:
as §1
`NC(=O)c1cnc(N[C@@H]2CCCC[C@@H]2N)nc1Nc1cccc(-n2nccn2)c1`: the log2 fold change was inactive: -0.078.

As to `C/C(=N\NC(=O)c1cccc(S(=O)(=O)N2CCOCC2)c1)c1cc(Cl)ccc1O`, the log2 fold change is inactive: -0.017.

As for `COC(=O)N[C@@H](C)CNc1nccc(-c2cn(C(C)C)nc2-c2cc(Cl)cc(NS(C)(=O)=O)c2F)n1` [encorafenib], the log2 fold change is inactive: -0.017.

Consider `Cn1cc(-c2ccc3nnc(C(F)(F)c4ccc5ncccc5c4)n3n2)cn1`, for which the log2 fold change was inactive: 0.005.

As for `Cc1ccc(C(=O)N(CCCN)[C@@H](c2nc3cc(Cl)ccc3c(=O)n2Cc2ccccc2)C(C)C)cc1` [ispinesib], the log2 fold change is inactive: -0.1.

On to `CNCc1ccc(-c2[nH]c3cc(F)cc4c3c2CCNC4=O)cc1` [rucaparib], for which the log2 fold change was inactive: 0.03.

Turning to `c1cc(OCCN2CCCCC2)cc(-c2n[nH]c3ccc(-c4nnc[nH]4)cc23)c1`, the log2 fold change is inactive: -0.025.

Regarding `O=C(CCCCCCNC(=O)c1cnc(N(c2ccccc2)c2ccccc2Cl)nc1)NO` [citarinostat], the log2 fold change is inactive: 0.018.

In the case of `CCCc1cc(C)[nH]c(=O)c1CNC(=O)c1cc(-c2ccnc(N3CCN(C)CC3)c2)cc2c1cnn2C(C)C`, the log2 fold change is inactive: -0.016.

In the case of `C[C@@H](N)c1ccc(C(=O)Nc2ccnc3[nH]ccc23)cc1`, the log2 fold change was inactive: 0.033.

Take `O=C1NC(=NCc2cccs2)S/C1=C\c1ccc2ncccc2c1`: the log2 fold change was inactive: 0.006.

As to `CC[C@H](C)n1cc(C)c2c(C(=O)NCc3c(C)cc(C)[nH]c3=O)cc(-c3ccc(N4CCNCC4)nc3)cc21`, the log2 fold change was inactive: 0.065.

Consider `FC(F)(F)c1ccc(/C=C/c2nc(COc3ccc(CCCCn4ccnn4)cc3)co2)cc1` [mubritinib], for which the log2 fold change was inactive: 0.026.

In the case of `CC(=O)c1cnc2ccc(-c3cc(Cl)c(O)c(Cl)c3)nc2c1N[C@H]1CC[C@H](CN(C)C)CC1`, the log2 fold change is inactive: -0.023.

Turning to `Cc1ccc(NC(=O)c2cccc(N(C)C)c2)cc1NC(=O)c1ccc(O)cc1`, the log2 fold change was inactive: 0.

On to `Cc1ccc(NC(=O)c2ccc(CN3CC[C@H](N(C)C)C3)c(C(F)(F)F)c2)cc1Nc1nccc(-c2cncnc2)n1` [bafetinib], for which the log2 fold change is inactive: -0.011.

Consider `CC(C)C[C@@H](C=O)NC(=O)[C@H](CC(C)C)NC(=O)[C@H](CC(C)C)NC(=O)OCc1ccccc1` (Cbz-Leu-Leu-Leu-aldehyde), for which the log2 fold change was inactive: 0.11.

As for `Cc1nc(Nc2n[nH]c3c2CN(C(=O)N[C@H](CN(C)C)c2ccccc2)C3(C)C)c2sccc2n1`, the log2 fold change was inactive: -0.041.

With `Oc1cc(-c2nc(-c3ccccc3)[nH]c2-c2ccncc2)ccc1Cl`, the log2 fold change is inactive: -0.087.

As to `CC[C@@H]1C(=O)N(C)c2cnc(Nc3ccc(C(=O)NC4CCN(C)CC4)cc3OC)nc2N1C1CCCC1`, the log2 fold change was inactive: 0.005.

As for `CC(C)(C)Cn1c(N)nc2ccc(-c3[nH]c(C(C)(C)C)nc3-c3ccc(F)cc3)nc21` [ralimetinib], the log2 fold change is inactive: -0.022.

For `O=C1c2ccccc2-c2n[nH]c3cccc1c23`, the log2 fold change was inactive: -0.042.

As for `Cc1ncc(-c2ccnc(Nc3ccc(S(C)(=O)=O)cc3)n2)n1C(C)C`, the log2 fold change is inactive: -0.023.

`COc1cc(C(=O)O)ccc1NC(=O)[C@@H]1N[C@@H](CC(C)(C)C)[C@](C#N)(c2ccc(Cl)cc2F)[C@H]1c1cccc(Cl)c1F` [idasanutlin]: the log2 fold change was inactive: 0.082.

Turning to `CO[C@H]1C[C@@H]2CC[C@@H](C)[C@@](O)(O2)C(=O)C(=O)N2CCCC[C@H]2C(=O)O[C@H]([C@H](C)C[C@@H]2CC[C@H](n3cnnn3)[C@H](OC)C2)CC(=O)[C@H](C)/C=C(\C)[C@@H](O)[C@@H](OC)C(=O)[C@H](C)C[C@H](C)/C=C/C=C/C=C/1C` [zotarolimus], the log2 fold change was inactive: 0.002.

As for `Cc1cn(-c2cc(NC(=O)c3ccc(C)c(Nc4nccc(-c5cccnc5)n4)c3)cc(C(F)(F)F)c2)cn1` [nilotinib], the log2 fold change was inactive: 0.057.

`COc1cc2ncnc(Nc3ccc(F)c(Cl)c3)c2cc1OCCCN1CCOCC1` [gefitinib]: the log2 fold change is inactive: -0.008.

Regarding `O=C1NC(=O)/C(=C\c2ccc3nccnc3c2)S1`, the log2 fold change is inactive: 0.022.

Consider `NC1(c2ccc(-c3nc4ccn5c(=O)[nH]nc5c4cc3-c3ccccc3)cc2)CCC1`, for which the log2 fold change was inactive: 0.033.

For the compound `Cn1cc(-c2ccc3c(c2)CCN3C(=O)Cc2cccc(C(F)(F)F)c2)c2c(N)ncnc21`, the log2 fold change was inactive: -0.018.
